Results taken from patent publication US9217150B2, “NRPS-PKS gene cluster and its manipulation and utility” (SINTEF TTO AS, priority 2008, dated 2015).
For at least one compound, name, drawing or mass did not settle the structure.

Tested on: strain DSM 21069 (isolate MP28-13)
Assay: Antibiotic resistance characteristics of strain DSM 21069
Type: cell-based, Streptomyces

Measured: Antibiotic resistance

NC[C@H]1O[C@H](O[C@H]2[C@H](O)[C@@H](O[C@H]3O[C@H](CO)[C@@H](O)[C@H](N)[C@H]3O)[C@H](N)C[C@@H]2N)[C@H](O)[C@@H](O)[C@@H]1O [Kanamycin]
sensitive: antibiotic at 5 μg/ml | antibiotic at 10 μg/ml | antibiotic at 20 μg/ml | antibiotic at 50 μg/ml
